{"source": "PubChem BioAssay AID504764 (Drosophila RNAi Screening Center, 2011)", "assay": "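Genes whose knock-down alters Notch-dependent transcription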 (primary screen)", "cell system": "Drosophila Kc167 cells", "knock-down reagent": "long dsRNA against Drosophila genes", "duration": "about 5 days (4 days dsRNA, then 24 h after transfection)", "challenge": "transfection of constitutively active membrane-tethered Notch lacking the extracellular domain, read 24 h later", "measured": "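Firefly luciferase from an E(spl)m3 reporter with active Notch, plus control-promoter and uninduced reporter wells for normalisation; unnormalised counts, duplicate wells a and b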", "reading the numbers": "induced reporter light, run 1, well a and induced reporter light, run 1, well b: higher = more light from the Notch target reporter with active Notch; control promoter light, run 1, well a and control promoter light, run 1, well b: higher = more light from the viral control promoter (cell number, transfection, viability); uninduced reporter light, run 1, well a: higher = more light from the Notch target reporter without active Notch", "hit rule": "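Hit if the duplicate-averaged log2 ratio of induced to control-promoter light gives a plate-wise z beyond ±2, or induced to uninduced beyond ±1.8; weak-control or discordant-duplicate wells dropped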", "calls": "active = modifier hit (raised or lowered Notch signal); inactive = not a hit", "note": "The screen tested about 22,000 reagents; this is an unselected part of those with a known target gene and a result. In the full data, 403 (1.9%) got an active call. 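Unnormalised raw counts per well; ratio z-scores behind the hit calls and whether each hit raises or lowers signal are not deposited.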 A number with no mark means an inactive call. A plus sign joins genes that one reagent is predicted to hit. Not given: the amount of reagent."}
{"target gene": "CG11779 (GeneID 42298)", "DRSC id": "DRSC14384", "induced reporter light, run 1, well a": 42505, "induced reporter light, run 1, well b": 59630, "control promoter light, run 1, well a": 73330, "control promoter light, run 1, well b": 74355, "uninduced reporter light, run 1, well a": 4425}
{"target gene": "Mal-A3 (GeneID 35826)", "DRSC id": "DRSC07462", "induced reporter light, run 1, well a": 2.18e5, "induced reporter light, run 1, well b": 1.75e5, "control promoter light, run 1, well a": 2.21e5, "control promoter light, run 1, well b": 1.80e5, "uninduced reporter light, run 1, well a": 17665}
{"target gene": "CG14126 (retired record) (GeneID 39350)", "DRSC id": "DRSC10130", "induced reporter light, run 1, well a": 1.51e5, "induced reporter light, run 1, well b": 1.55e5, "control promoter light, run 1, well a": 1.96e5, "control promoter light, run 1, well b": 1.63e5, "uninduced reporter light, run 1, well a": 7230}
{"target gene": "CG10959 (GeneID 31743)", "DRSC id": "DRSC17769", "induced reporter light, run 1, well a": 2.26e5, "induced reporter light, run 1, well b": 2.09e5, "control promoter light, run 1, well a": 3.07e5, "control promoter light, run 1, well b": 3.37e5, "uninduced reporter light, run 1, well a": 14760}
{"target gene": "CG14668 (GeneID 40646)", "DRSC id": "DRSC12254", "induced reporter light, run 1, well a": 97260, "induced reporter light, run 1, well b": 1.12e5, "control promoter light, run 1, well a": 79805, "control promoter light, run 1, well b": 78115, "uninduced reporter light, run 1, well a": 4820}
{"target gene": "fend (GeneID 31843)", "DRSC id": "DRSC17601", "induced reporter light, run 1, well a": 97970, "induced reporter light, run 1, well b": 76630, "control promoter light, run 1, well a": 87300, "control promoter light, run 1, well b": 79785, "uninduced reporter light, run 1, well a": 6210}
{"target gene": "fend (GeneID 31843)", "DRSC id": "DRSC17867", "induced reporter light, run 1, well a": 43230, "induced reporter light, run 1, well b": 57285, "control promoter light, run 1, well a": 70095, "control promoter light, run 1, well b": 76480, "uninduced reporter light, run 1, well a": 3780}
{"target gene": "Dbct (GeneID 32441)", "DRSC id": "DRSC19951", "induced reporter light, run 1, well a": 2.08e5, "induced reporter light, run 1, well b": 1.38e5, "control promoter light, run 1, well a": 2.05e5, "control promoter light, run 1, well b": 1.86e5, "uninduced reporter light, run 1, well a": 10795}
{"target gene": "Lcch3 (GeneID 32554)", "DRSC id": "DRSC20257", "induced reporter light, run 1, well a": 1.72e5, "induced reporter light, run 1, well b": 1.64e5, "control promoter light, run 1, well a": 1.95e5, "control promoter light, run 1, well b": 1.52e5, "uninduced reporter light, run 1, well a": 10255}
{"target gene": "anchor (GeneID 39965)", "DRSC id": "DRSC10861", "induced reporter light, run 1, well a": 1.19e5, "induced reporter light, run 1, well b": 1.27e5, "control promoter light, run 1, well a": 61645, "control promoter light, run 1, well b": 71800, "uninduced reporter light, run 1, well a": 9950}
{"target gene": "OS9 + Hf", "DRSC id": "DRSC03392", "induced reporter light, run 1, well a": 1.58e5, "induced reporter light, run 1, well b": 1.60e5, "control promoter light, run 1, well a": 1.27e5, "control promoter light, run 1, well b": 1.38e5, "uninduced reporter light, run 1, well a": 12395}
{"target gene": "Tm2 (GeneID 41853)", "DRSC id": "DRSC16887", "induced reporter light, run 1, well a": 2.29e5, "induced reporter light, run 1, well b": 2.03e5, "control promoter light, run 1, well a": 2.05e5, "control promoter light, run 1, well b": 1.83e5, "uninduced reporter light, run 1, well a": 15640}
{"target gene": "pdm2 (GeneID 34673)", "DRSC id": "DRSC02496", "induced reporter light, run 1, well a": "1.41e5 (active)", "induced reporter light, run 1, well b": 1.40e5, "control promoter light, run 1, well a": 73260, "control promoter light, run 1, well b": 65810, "uninduced reporter light, run 1, well a": 12492}
{"target gene": "pdm2 (GeneID 34673)", "DRSC id": "DRSC02497", "induced reporter light, run 1, well a": 46455, "induced reporter light, run 1, well b": 46745, "control promoter light, run 1, well a": 32520, "control promoter light, run 1, well b": 37785, "uninduced reporter light, run 1, well a": 5100}
{"target gene": "pdm2 (GeneID 34673)", "DRSC id": "DRSC03587", "induced reporter light, run 1, well a": "1.73e5 (active)", "induced reporter light, run 1, well b": 1.87e5, "control promoter light, run 1, well a": 1.26e5, "control promoter light, run 1, well b": 1.32e5, "uninduced reporter light, run 1, well a": 13650}
{"target gene": "Dhc1 (GeneID 41171)", "DRSC id": "DRSC16503", "induced reporter light, run 1, well a": 1.02e5, "induced reporter light, run 1, well b": 99985, "control promoter light, run 1, well a": 87215, "control promoter light, run 1, well b": 72680, "uninduced reporter light, run 1, well a": 5375}
{"target gene": "CG2145 (GeneID 32027)", "DRSC id": "DRSC19835", "induced reporter light, run 1, well a": 1.75e5, "induced reporter light, run 1, well b": 1.64e5, "control promoter light, run 1, well a": 2.82e5, "control promoter light, run 1, well b": 2.63e5, "uninduced reporter light, run 1, well a": 13865}
{"target gene": "Pnn (GeneID 41185)", "DRSC id": "DRSC16415", "induced reporter light, run 1, well a": 86310, "induced reporter light, run 1, well b": 87855, "control promoter light, run 1, well a": 80035, "control promoter light, run 1, well b": 52495, "uninduced reporter light, run 1, well a": 5795}

2 entries already listed, sorted by “induced reporter light, run 1, well b”, low to high:
{"target gene": "Dhc1 (GeneID 41171)", "DRSC id": "DRSC16503", "induced reporter light, run 1, well a": 1.02e5, "induced reporter light, run 1, well b": 99985, "control promoter light, run 1, well a": 87215, "control promoter light, run 1, well b": 72680, "uninduced reporter light, run 1, well a": 5375}
{"target gene": "pdm2 (GeneID 34673)", "DRSC id": "DRSC03587", "induced reporter light, run 1, well a": "1.73e5 (active)", "induced reporter light, run 1, well b": 1.87e5, "control promoter light, run 1, well a": 1.26e5, "control promoter light, run 1, well b": 1.32e5, "uninduced reporter light, run 1, well a": 13650}
